Library screening results

Each number is a percent effect as filed.
The controls that fix the scale are not given in the record; negative values are as filed.
This is an unselected part of the compounds tested.
A dash means the value is not listed here; it may have been measured.

Mtb growth Cornell: 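Whole-cell assay for inhibitors of Mycobacterium tuberculosis growth, labelled Cornell in the record; the read-out is not stated. The concentration is filed as 10 mM, unlikely as a test dose, so the dose is not known. The record gives no direction; compounds strong in two other growth screens of this library score well above the rest, so higher reads as stronger inhibition. Of about 53,000 compounds tested this way, about 900 (1.7%) reached 50% or more in at least one test.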
Mtb heat-shock: 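Assay on Mycobacterium tuberculosis, filed only as a heat shock assay from Cornell; the read-out is not stated. The concentration is filed as 10 mM, unlikely as a test dose, so the dose is not known. Higher reads as stronger inhibition (inferred: compounds with an IC50 in retests scored well above the rest). Of about 69,000 compounds tested this way, about 930 (1.4%) reached 50% or more in at least one test.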

For Cc1cnc(CN(C)C2CCN(Cc3ccccc3C#N)C2)o1 (configuration not stated) the result was Mtb heat-shock: 8.374%.
For O=C(Nc1ccccc1-c1cccs1)N1CCN(CC(F)F)CC1 the result was Mtb growth Cornell: -4.883%; Mtb heat-shock: 0.2222%.
For CC(=O)N1CCCc2cc(NC(=O)NCCc3cnn(C)c3)ccc21 the result was Mtb growth Cornell: 20.53%; Mtb heat-shock: 11.78%.
For Cn1cnnc1CNC(=O)Nc1cc(C(F)(F)F)c[nH]c1=O the result was Mtb heat-shock: 17.71%.
For N#Cc1ccc(NCc2cc3n(n2)CCCN(C(=O)C2CCC2)C3)nc1 the result was Mtb growth Cornell: 9.537%; Mtb heat-shock: -3.867%.
For Cc1ccc(C(=O)N2CCC3(CC2)COCCN(S(C)(=O)=O)C3)cc1C the result was Mtb growth Cornell: 7.41%; Mtb heat-shock: -1.796%.
For Cc1nc(N2CCCC2)ncc1-c1cc(O)nc(N2CCN(C)CC2)n1 the result was Mtb heat-shock: -19.12%.
For CCOc1ccc(Cl)c(C(=O)NCCS(N)(=O)=O)n1 the result was Mtb heat-shock: -11.75%.
For CNc1cc(N2CCCC2CNCc2cnc(C)cn2)ncn1 (configuration not stated) the result was Mtb growth Cornell: -1.99%; Mtb heat-shock: -0.7098%.
For Cc1cc(-n2c(C)cn(CN(C)C3CCS(=O)(=O)C3)c2=O)no1 (configuration not stated) the result was Mtb growth Cornell: 18.74%; Mtb heat-shock: 8.598%.
For CCS(=O)(=O)Cc1nnnn1-c1ccccc1 the result was Mtb growth Cornell: 20.56%; Mtb heat-shock: -1.085%.
For CC(NC(=O)CN(C)S(C)(=O)=O)c1nnc2n1CCCCC2 (configuration not stated) the result was Mtb growth Cornell: -42.9%; Mtb heat-shock: 8.186%.
For Cn1cc(C2CC(=O)NC23CCN(C(=O)Cc2ccccn2)CC3)cn1.O=C(O)C(F)(F)F (configuration not stated) the result was Mtb growth Cornell: 2.322%; Mtb heat-shock: -20.75%.
For COc1cc(CO)ccc1OCc1nc(C2CC2)no1 the result was Mtb growth Cornell: -18.82%; Mtb heat-shock: 14.7%.
For CC(C)C1CN(C(=O)Nc2cnn(CC(F)F)c2)CCO1 (configuration not stated) the result was Mtb growth Cornell: 16.95%; Mtb heat-shock: 8.648%.
For CCCN1C[C@H](NC(=O)c2cc(C)no2)[C@@H](c2ccc(OC)cc2)C1 the result was Mtb growth Cornell: -13.05%; Mtb heat-shock: -5.142%.
For O=C(CCc1ccsc1)N(Cc1ccccn1)C1CC1 the result was Mtb growth Cornell: 25.15%; Mtb heat-shock: -29.11%.
For O=C(NC1(c2cccc(F)c2)CCOCC1)c1cc[nH]n1 the result was Mtb growth Cornell: -31.52%; Mtb heat-shock: -9.064%.
For Cc1nc(CN2CCC3(CCCN(Cc4cnn(C)c4)C3)C2=O)cs1.O=C(O)C(F)(F)F.O=C(O)C(F)(F)F (configuration not stated) the result was Mtb growth Cornell: 14.91%; Mtb heat-shock: -6.061%.
For [H][C@@]12CCN(S(C)(=O)=O)C[C@]1(C(=O)NCC1CC1)CCO2 the result was Mtb growth Cornell: -13.73%; Mtb heat-shock: 49.07%.
For CC(C)c1nc2c(n1C)CCN(CC(=O)Nc1ccc(Cl)cn1)C2 the result was Mtb heat-shock: 12.37%.
For CCn1nccc1CN(C)c1[nH]cnc2nc(C)nc1-2 the result was Mtb growth Cornell: 1.62%; Mtb heat-shock: 22.77%.
For N[C@H]1CN(S(=O)(=O)c2cccnc2)C[C@@H]1C1CC1 the result was Mtb growth Cornell: 8.489%; Mtb heat-shock: 26.36%.
For [H][C@@]12CS(=O)(=O)C[C@]1([H])N(Cc1ncc[nH]1)CCN2Cc1ccccc1CC the result was Mtb growth Cornell: -0.4688%; Mtb heat-shock: -2.407%.
For Cn1ccnc1C(=O)N1CCCC1c1ccc(C(=O)N2CCOCC2)s1 (configuration not stated) the result was Mtb growth Cornell: 28.42%; Mtb heat-shock: -12.4%.
For O=c1[nH]nc2nc(N3CCOCC3)ccn12 the result was Mtb growth Cornell: 7.209%; Mtb heat-shock: 6.775%.
For CN(C)C(=O)CNC(=O)CCn1ncc2c(Cl)cccc21 the result was Mtb heat-shock: -2.825%.
For Cc1cc(=O)n(CCNC(=O)c2ccccc2Cl)cn1 the result was Mtb growth Cornell: 16.82%; Mtb heat-shock: -12.68%.
For CCC(C)N(C)S(=O)(=O)c1ccc(CCNC(C)=O)s1 (configuration not stated) the result was Mtb growth Cornell: 3.47%; Mtb heat-shock: 13.54%.
For Cc1nc(C)c(C)c(NCCSc2ccccn2)n1 the result was Mtb growth Cornell: -9.279%; Mtb heat-shock: 14.21%.
For CN1CC(Nc2nc3c(cnn3C(C)(C)C)c(=O)[nH]2)CCC1=O (configuration not stated) the result was Mtb growth Cornell: 12.63%; Mtb heat-shock: -7.794%.
For COc1ccc(CN(C(=O)C2CCCO2)c2ccncc2)cc1 (configuration not stated) the result was Mtb heat-shock: -11.42%.
For CC(C)(C)c1ccc(C2(C(=O)NCCS(C)(=O)=O)CC2)cc1 the result was Mtb heat-shock: -9.804%.
For O=C(O)C(F)(F)F.[H][C@]12CC[C@@]3(N=C(CC)N(CC)C3=O)[C@@]1([H])CN(CC1CC1)C2 the result was Mtb growth Cornell: 7.399%; Mtb heat-shock: -24.85%.
For Cc1nc(N2CCCC2)nc2c1CCN(Cc1ccoc1)CC2.O=C(O)C(F)(F)F the result was Mtb growth Cornell: 56.27%; Mtb heat-shock: 64.12%.
For CNC(=O)C1CCCN(c2nc(-c3ccco3)nc3c2CCNCC3)C1 (configuration not stated) the result was Mtb growth Cornell: 21.52%; Mtb heat-shock: -1.195%.
For [H][C@@]12C[C@@H](OCc3cccc(C)n3)CN1CCN(C(=O)c1cnccn1)C2 the result was Mtb growth Cornell: 33.65%; Mtb heat-shock: -20.77%.
For CC(C)Cc1cc(NC(=O)c2ccncc2)n(C)n1 the result was Mtb growth Cornell: -14.9%; Mtb heat-shock: 18.34%.
For O=C(O)C(F)(F)F.[H][C@@]12CN(C(=O)NC(C)C)C[C@]1([H])C(=O)N(Cc1cccc(C)n1)C2 the result was Mtb growth Cornell: 25.36%; Mtb heat-shock: -20.84%.
For Cc1ccc2c(c1)OC1(NC2=O)C(=O)N(C)c2ccccc21 (configuration not stated) the result was Mtb growth Cornell: -15.05%; Mtb heat-shock: -14.07%.
For CC(C)c1n[nH]c(C2CN(C(=O)CCc3cscn3)CCO2)n1 (configuration not stated) the result was Mtb heat-shock: 10.2%.
For CCCn1ncc(C(=O)N2CCN(C3CCCC3)CC2)c1C the result was Mtb growth Cornell: -13.42%; Mtb heat-shock: -25.59%.
For CN(C)Cc1ccnc(C2CN(CCc3ccccc3)CCO2)n1 (configuration not stated) the result was Mtb growth Cornell: -28.43%; Mtb heat-shock: -32.85%.
For CSc1cc2c(cc1NC(=O)N(C)Cc1cnn(C)c1)OCCO2 the result was Mtb growth Cornell: 11.56%; Mtb heat-shock: 0.6557%.
For CC(C)Nc1nc(N2CCCC2)nc2c1CN(S(C)(=O)=O)CC2 the result was Mtb growth Cornell: 12.79%; Mtb heat-shock: 11%.
For CS(=O)(=O)N1CCC2(CC1)CN(CC1CC1)CC21CCNC1=O.O=C(O)C(F)(F)F (configuration not stated) the result was Mtb heat-shock: -0.7665%.

The last 4 entries again:

Compound	Mtb growth Cornell	Mtb heat-shock
CN(C)Cc1ccnc(C2CN(CCc3ccccc3)CCO2)n1 (configuration not stated)	-28.43	-32.85
CSc1cc2c(cc1NC(=O)N(C)Cc1cnn(C)c1)OCCO2	11.56	0.6557
CC(C)Nc1nc(N2CCCC2)nc2c1CN(S(C)(=O)=O)CC2	12.79	11
CS(=O)(=O)N1CCC2(CC1)CN(CC1CC1)CC21CCNC1=O.O=C(O)C(F)(F)F (configuration not stated)	-	-0.7665

The values are deposited in ChEMBL (CHEMBL3988442, “University of Dundee, Small-Polar-MMV Screening Library” (2021)).